Laboratory results from paper PMC3480639.
Results are given in words; binding and its absence hold for the method and conditions named. In cells and extracts the contact can be indirect. These calls come from enrichment with a bait or labelling near it, and not all partners need be listed.

Protein sequences, listed by entry. Tags and fused reporters are not part of them.
UniProt P62207: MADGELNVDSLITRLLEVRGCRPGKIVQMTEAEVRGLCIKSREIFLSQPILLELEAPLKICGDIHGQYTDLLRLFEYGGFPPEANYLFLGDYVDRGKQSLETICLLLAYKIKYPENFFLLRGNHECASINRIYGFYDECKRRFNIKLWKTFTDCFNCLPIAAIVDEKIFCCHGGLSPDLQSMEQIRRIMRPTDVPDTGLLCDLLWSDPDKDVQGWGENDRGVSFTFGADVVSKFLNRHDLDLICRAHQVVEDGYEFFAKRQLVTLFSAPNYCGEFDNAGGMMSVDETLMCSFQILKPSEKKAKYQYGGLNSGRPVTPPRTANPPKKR

Experiments:
[1] = biological target: T1, TrAP:hRepo-Man^WT (human) (UniProt Q69YH5); assay: affinity purification with mass spectrometry; SILAC pull-downs from DT40 cells: Repo-Man plus roscovitine (anaphase) against minus roscovitine (prometaphase), and Repo-Man against TrAP:GFP (both roscovitine-treated)
T1 sequence: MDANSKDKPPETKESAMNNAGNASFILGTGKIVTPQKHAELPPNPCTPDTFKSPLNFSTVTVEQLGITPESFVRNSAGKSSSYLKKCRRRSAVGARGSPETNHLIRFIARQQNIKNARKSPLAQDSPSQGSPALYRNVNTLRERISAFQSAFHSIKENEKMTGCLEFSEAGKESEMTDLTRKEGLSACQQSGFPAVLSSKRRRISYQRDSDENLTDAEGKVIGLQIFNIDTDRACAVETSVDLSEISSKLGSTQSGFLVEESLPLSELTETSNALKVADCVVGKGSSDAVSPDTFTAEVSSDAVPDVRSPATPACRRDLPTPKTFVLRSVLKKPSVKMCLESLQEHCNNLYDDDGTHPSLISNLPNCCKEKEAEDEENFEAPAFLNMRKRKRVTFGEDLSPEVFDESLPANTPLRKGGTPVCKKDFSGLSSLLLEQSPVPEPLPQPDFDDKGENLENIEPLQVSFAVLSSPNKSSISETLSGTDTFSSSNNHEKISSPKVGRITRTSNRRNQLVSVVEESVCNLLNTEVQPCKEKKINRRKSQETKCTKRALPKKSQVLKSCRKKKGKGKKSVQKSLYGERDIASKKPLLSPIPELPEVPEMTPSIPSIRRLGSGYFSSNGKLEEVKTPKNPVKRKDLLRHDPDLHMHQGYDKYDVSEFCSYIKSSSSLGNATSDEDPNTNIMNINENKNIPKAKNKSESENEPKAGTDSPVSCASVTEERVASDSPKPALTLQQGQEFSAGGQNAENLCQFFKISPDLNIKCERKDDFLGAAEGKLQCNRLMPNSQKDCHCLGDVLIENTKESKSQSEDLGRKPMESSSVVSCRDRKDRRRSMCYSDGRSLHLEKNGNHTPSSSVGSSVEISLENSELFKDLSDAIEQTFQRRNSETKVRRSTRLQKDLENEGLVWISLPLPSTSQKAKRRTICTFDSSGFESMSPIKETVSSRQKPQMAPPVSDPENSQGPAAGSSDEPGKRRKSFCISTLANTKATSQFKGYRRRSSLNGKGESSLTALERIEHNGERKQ

[2] = biological target: T1, TrAP:hRepo-Man^WT (human); assay: affinity purification with mass spectrometry; TrAP-tagged Repo-Man from DT40 cells blocked with colcemid and forced to exit mitosis with roscovitine; proteins solubilised from the chromosome fraction, streptavidin beads then S-protein column

Substance	binding [1]	binding [2]
Importin α (endogenous, DT40) (chicken (endogenous in DT40))	binds	–
Importin β (endogenous, DT40) (chicken (endogenous in DT40))	binds	binds
NUP50 (endogenous, DT40) (chicken (endogenous in DT40))	–	binds
NUP153 (endogenous, DT40) (chicken (endogenous in DT40))	binds	binds
PP1β (endogenous, DT40) (from UniProt P62207 1-327) (enzyme)	binds	binds
